These are yes or no findings as the source states them, for the method shown. In cells and extracts the contact can be indirect. These calls come from enrichment with a bait or labelling near it, and not all partners need be listed.
What was measured:
[1] = target: FLAG-RagC (UniProt Q9HB90); experiment: affinity purification with mass spectrometry; extracts of HEK-293T cells expressing FLAG-Gal3, FLAG-RagA or FLAG-RagC on an anti-FLAG M2 affinity column, washed with cold PBS plus 0.1% Nonidet P-40, eluted with 3x FLAG peptides; SDS-PAGE, silver stain, LC/MS-MS
[2] = target: FLAG-RagA (UniProt Q7L523); experiment: as above

Amino acid sequences for entries named in this document (tags omitted).
UniProt Q5VZM2: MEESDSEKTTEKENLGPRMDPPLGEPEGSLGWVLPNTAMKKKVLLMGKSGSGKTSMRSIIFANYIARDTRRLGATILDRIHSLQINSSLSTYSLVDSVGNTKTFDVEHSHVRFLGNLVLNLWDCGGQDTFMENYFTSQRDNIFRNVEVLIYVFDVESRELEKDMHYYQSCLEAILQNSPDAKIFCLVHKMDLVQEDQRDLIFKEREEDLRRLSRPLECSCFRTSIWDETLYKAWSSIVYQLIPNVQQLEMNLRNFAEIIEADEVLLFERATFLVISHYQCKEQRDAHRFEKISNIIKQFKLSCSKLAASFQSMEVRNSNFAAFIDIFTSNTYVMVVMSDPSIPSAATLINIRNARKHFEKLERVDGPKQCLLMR

For RagB (from UniProt Q5VZM2 1-374), which binding [1] is on record?
The binding was “binds”.

And the binding [2]?
Its binding is “binds”.
